Source: doi:10.1101/2021.06.09.447684
Results are given in words; binding and its absence hold for the method and conditions named. Binding seen in cells or lysates may run through a third protein. Some entries that bind do so weakly or less than the wild type.

Biological target: T1, CAVIN1 (human (endogenous in HeLa)) (UniProt Q6NZI2)
T1 sequence: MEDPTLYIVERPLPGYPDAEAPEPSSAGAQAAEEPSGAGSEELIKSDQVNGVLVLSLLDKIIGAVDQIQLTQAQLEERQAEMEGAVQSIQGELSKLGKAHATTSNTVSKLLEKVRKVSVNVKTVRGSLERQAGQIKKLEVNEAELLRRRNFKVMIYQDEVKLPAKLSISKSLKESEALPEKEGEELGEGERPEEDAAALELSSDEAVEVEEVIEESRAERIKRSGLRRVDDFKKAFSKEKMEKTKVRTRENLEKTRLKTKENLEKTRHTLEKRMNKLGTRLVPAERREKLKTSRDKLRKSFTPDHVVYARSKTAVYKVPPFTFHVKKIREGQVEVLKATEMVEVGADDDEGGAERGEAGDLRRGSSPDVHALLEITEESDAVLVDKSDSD
Assay: co-IP

binding: binds
B1: nuclear factor-erythroid factor 2-related factor 2 (NRF2) (protein, UniProt Q16236 1-605)
chain: MMDLELPPPGLPSQQDMDLIDILWRQDIDLGVSREVFDFSQRRKEYELEKQKKLEKERQEQLQKEQEKAFFAQLQLDEETGEFLPIQPAQHIQSETSGSANYSQVAHIPKSDALYFDDCMQLLAQTFPFVDDNEVSSATFQSLVPDIPGHIESPVFIATNQAQSPETSVAQVAPVDLDGMQQDIEQVWEELLSIPELQCLNIENDKLVETTMVPSPEAKLTEVDNYHFYSSIPSMEKEVGNCSPHFLNAFEDSFSSILSTEDPNQLTVNSLNSDATVNTDFGDEFYSAFIAEPSISNSMPSPATLSHSLSELLNGPIDVSDLSLCKAFNQNHPESTAEFNDSDSGISLNTSPSVASPEHSVESSSYGDTLLGLSDSEVEELDSAPGSVKQNGPKTPVHSSGDMVQPLSPSQGQSTHVHDAQCENTPEKELPVSPGHRKTPFTKDKHSSRLEAHLTRDELRAKALHIPFPVEKIINLPVVDFNEMMSKEQFNEAQLALIRDIRRRGKNKVAAQNCRKRKLENIVELEQDLDHLKDEKEKLLKEKGENDKSLHLLKKQLSTLYLEVFSMLRDEDGKPYSPSEYSLQQTRDGNVFLVPKSKKPDVKKN
